# Data as given in PubChem BioAssay AID1259254 (NCATS, 2017).
# Aim: 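Gene knock-downs that lead to re-replication, shown by excess G2 DNA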 (primary screen)
# System: human HCT116 colorectal cancer cells
# Reagents: single siRNA against human genes
# Duration: 3 days
# Detection: 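Imaged Hoechst DNA stain sorts each cell into a cycle phase by DNA amount; per plate, G2 fraction set to 0% for non-targeting and 100% for GMNN siRNA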
# Direction: G2 robust z-score and G2 cells, % of GMNN control: higher = more G2 cells, more excess DNA replication; raw share of cells in G2: higher = larger share of cells with G2 DNA content
# Call rule: 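An siRNA counts as active if its G2 robust z-score lies at least 5 MADs above the screen median; here such calls match roughly 38% of GMNN control or more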
# In all, the deposit lists about 59,000 reagents; below is an unselected part. About 1,550 of them (2.6%) count as active. 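G2 share is only a proxy for re-replication; each gene was hit by three separate siRNAs, and active genes were retested.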 The raw values are shown without normalisation. Entries without a mark were called inactive. The record does not give: the amount of reagent.
target gene,PubChem SID,G2 robust z-score,"G2 cells, % of GMNN control",raw share of cells in G2 (%)
CECR2 (GeneID 27443),SID160738817,0.0727,3.48,5.18
CECR2 (GeneID 27443),SID160738818,0.697,7.87,7.53
CECR2 (GeneID 27443),SID160738819,1.16,11.1,6.76
DHX34 (GeneID 9704),SID160722857,0.919,9.43,8.77
DHX34 (GeneID 9704),SID160722858,-0.000605,2.96,4.21
DHX34 (GeneID 9704),SID160722861,-0.698,-1.95,3.96
CYP8B1 (GeneID 1582),SID160751839,2.74,22.2,13.1
CYP8B1 (GeneID 1582),SID160751850,-0.645,-1.57,3.55
CYP8B1 (GeneID 1582),SID160751861,8.58 (active),63.3,27.6
WFS1 (GeneID 7466),SID160718820,0.702,7.91,7.08
WFS1 (GeneID 7466),SID160718821,1.27,11.9,8.7
WFS1 (GeneID 7466),SID160718822,0.271,4.87,7.66
OR2T10 (GeneID 127069),SID160756578,1.41,12.9,9.04
OR2T10 (GeneID 127069),SID160756579,0.921,9.44,6.1
OR2T10 (GeneID 127069),SID160756580,-0.349,0.511,2.76
ELOA (GeneID 6924),SID160717781,-0.552,-0.916,3.1
ELOA (GeneID 6924),SID160717783,2.63,21.5,10.9
ELOA (GeneID 6924),SID160731817,3.06,24.5,16.3
TTC39C (GeneID 125488),SID160756335,1.36,12.5,9.12
TTC39C (GeneID 125488),SID160756336,-0.585,-1.15,2.99
TTC39C (GeneID 125488),SID160756337,1.55,13.9,5.88
ZNF85 (GeneID 7639),SID160719123,-0.386,0.251,3.61
ZNF85 (GeneID 7639),SID160719124,-1.01,-4.14,4.14
ZNF85 (GeneID 7639),SID160719126,-0.518,-0.674,3.06
H2BC11 (GeneID 8970),SID160721204,0.508,6.54,8.03
H2BC11 (GeneID 8970),SID160724203,-0.223,1.4,4.45
H2BC11 (GeneID 8970),SID160735155,-0.781,-2.53,2.45
ALDH1L1 (GeneID 10840),SID160729313,-1.17,-5.29,3.4
ALDH1L1 (GeneID 10840),SID160729314,-1.15,-5.15,2.18
ALDH1L1 (GeneID 10840),SID160729315,0.467,6.26,8.94
ABHD5 (GeneID 51099),SID160731349,1.96,16.8,11.4
ABHD5 (GeneID 51099),SID160740051,0.199,4.37,6.45
ABHD5 (GeneID 51099),SID160740052,0.0901,3.6,5.25
LINC00898 (GeneID 400932),SID160767086,-0.0788,2.41,4.69
LINC00898 (GeneID 400932),SID160767087,-0.839,-2.93,2.35
LINC00898 (GeneID 400932),SID160767088,0.946,9.63,8.78
OR6C6 (GeneID 283365),SID160732927,1.61,14.3,8.24
OR6C6 (GeneID 283365),SID160732928,0.0703,3.46,4.41
OR6C6 (GeneID 283365),SID160762879,-0.554,-0.929,3.92
C1orf162 (GeneID 128346),SID160756739,2.22,18.6,11.2
C1orf162 (GeneID 128346),SID160756740,0.0338,3.21,4.12
C1orf162 (GeneID 128346),SID160756741,4.08,31.6,14
BCL7B (GeneID 9275),SID160721860,-0.738,-2.23,4.32
BCL7B (GeneID 9275),SID160721861,-0.246,1.24,4.46
BCL7B (GeneID 9275),SID160735203,-0.633,-1.49,2.86
H4C8 (GeneID 8365),SID160719912,-0.254,1.18,5.65
H4C8 (GeneID 8365),SID160719913,0.505,6.52,6.48
H4C8 (GeneID 8365),SID160724168,0.388,5.69,5.36
TYW5 (GeneID 129450),SID160732456,0.189,4.29,4.14
TYW5 (GeneID 129450),SID160756864,1.93,16.5,10.4
TYW5 (GeneID 129450),SID160756865,-0.671,-1.75,2.55
ATP5MC1 (GeneID 516),SID160731392,-1.2,-5.46,1.96
ATP5MC1 (GeneID 516),SID160731393,-0.846,-2.99,3.7
ATP5MC1 (GeneID 516),SID160768592,0.374,5.6,7.07
WNT3 (GeneID 7473),SID160718833,-1.01,-4.16,3.84
WNT3 (GeneID 7473),SID160718834,-0.903,-3.38,3.36
WNT3 (GeneID 7473),SID160718835,-0.693,-1.91,3.55
RWDD2A (GeneID 112611),SID160754712,1.64,14.5,9.91
RWDD2A (GeneID 112611),SID160754713,-0.952,-3.73,2.22
RWDD2A (GeneID 112611),SID160754714,-0.447,-0.174,1.77
CENPV (GeneID 201161),SID160760933,0.406,5.82,5.69
CENPV (GeneID 201161),SID160760934,-0.426,-0.0287,2.95
CENPV (GeneID 201161),SID160760935,0.0707,3.46,3.86
TAB1 (GeneID 10454),SID160728456,0.982,9.88,9.99
TAB1 (GeneID 10454),SID160728457,-0.316,0.741,4.08
TAB1 (GeneID 10454),SID160728458,0.967,9.77,10.3
MARS2 (GeneID 92935),SID160754399,0.305,5.11,7.16
MARS2 (GeneID 92935),SID160754401,-0.0453,2.65,6.9
MARS2 (GeneID 92935),SID160754402,-0.37,0.367,4.62

6 entries from above in another layout.
ABHD5 (GeneID 51099) [SID160731349]
- G2 robust z-score: 1.96
- G2 cells, % of GMNN control: 16.8
- raw share of cells in G2 (%): 11.4

ABHD5 (GeneID 51099) [SID160740051]
- G2 robust z-score: 0.199
- G2 cells, % of GMNN control: 4.37
- raw share of cells in G2 (%): 6.45

ABHD5 (GeneID 51099) [SID160740052]
- G2 robust z-score: 0.0901
- G2 cells, % of GMNN control: 3.6
- raw share of cells in G2 (%): 5.25

LINC00898 (GeneID 400932) [SID160767086]
- G2 robust z-score: -0.0788
- G2 cells, % of GMNN control: 2.41
- raw share of cells in G2 (%): 4.69

LINC00898 (GeneID 400932) [SID160767087]
- G2 robust z-score: -0.839
- G2 cells, % of GMNN control: -2.93
- raw share of cells in G2 (%): 2.35

LINC00898 (GeneID 400932) [SID160767088]
- G2 robust z-score: 0.946
- G2 cells, % of GMNN control: 9.63
- raw share of cells in G2 (%): 8.78
